The supplement of paper PMC6078165

Tested on: BT20
Assay: relative JC-1 red fluorescence (viability) vs pre-drug, coculture with fibroblast (fraction); higher = more viable cancer cells
Method: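 JC-1 labelled TNBC cells cocultured 1:1 (1,500 cells each) with CellTrace Violet stained primary or stromal fibroblasts in 384-well plates in FluoroBrite medium, treated with one of 42 anticancer drugs at 0.1, 1, 10 or 100 uM. JC-1 red fluorescence (mitochondrial integrity in cancer cells only) was read by plate reader every 8 h for 72 h. Values are normalised to each well's pre-drug value. The stock of one drug was tenfold lower, so its dose labels may be too high.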

O=C(O)CCCc1ccc(N(CCCl)CCCl)cc1 [Chlorambucil]
relative JC-1 red fluorescence
Details	8 h	16 h	24 h	32 h	40 h	48 h	56 h	64 h	72 h
0.1 µM, coculture fibroblast: C12385	0.899	0.874	0.879	0.843	0.793	0.784	0.776	0.778	0.772
0.1 µM, coculture fibroblast: H6013	0.917	0.892	0.9065	0.885	0.881	0.902	0.885	0.885	0.792
0.1 µM, coculture fibroblast: H6019	0.844	0.787	0.798	0.745	0.701	0.69	0.663	0.656	0.635
0.1 µM, coculture fibroblast: H6076	0.862	0.937	0.865	0.842	0.819	0.805	0.798	0.796	0.794
0.1 µM, coculture fibroblast: H6231	0.869	0.908	0.8374	0.7891	0.764	0.724	0.698	0.682	0.666
0.1 µM, coculture fibroblast: HADF	0.9318	0.887	0.88	0.839	0.833	0.819	0.848	0.872	0.863
0.1 µM, coculture fibroblast: HCFa	0.941	0.888	0.824	0.762	0.72	0.674	0.657	0.642	0.613
0.1 µM, coculture fibroblast: HCPF	0.921	0.932	0.8579	0.811	0.774	0.727	0.7	0.7075	0.6832
0.1 µM, coculture fibroblast: HHSteC	0.93	0.871	0.822	0.755	0.686	0.636	0.608	0.59	0.565
0.1 µM, coculture fibroblast: HMF	0.931	0.88	0.781	0.728	0.68	0.635	0.61	0.5934	0.57705
0.1 µM, coculture fibroblast: HPFa	0.903	0.867	0.866	0.795	0.77	0.728	0.711	0.695	0.6465
0.1 µM, coculture fibroblast: HUF	0.894	0.842	0.841	0.765	0.717	0.68	0.66	0.637	0.621
0.1 µM, coculture fibroblast: Hs5	0.947	0.931	0.873	0.835	0.811	0.7768	0.7585	0.735	0.7197
0.1 µM, coculture fibroblast: Hs27A	0.8759	0.925	0.846	0.883	0.813	0.888	0.822	0.786	0.863
0.1 µM, coculture fibroblast: Hs343T	0.893	0.896	0.783	0.715	0.654	0.602	0.545	0.527	0.501
0.1 µM, coculture fibroblast: WS1	0.843	0.801	0.829	0.78	0.753	0.747	0.745	0.738	0.741
1 µM, coculture fibroblast: C12385	0.899	0.808	0.766	0.701	0.641	0.624	0.599	0.581	0.567
1 µM, coculture fibroblast: H6013	0.973	0.891	0.829	0.791	0.743	0.722	0.721	0.705	0.684
1 µM, coculture fibroblast: H6019	0.8573	0.7842	0.756	0.703	0.66	0.643	0.599	0.572	0.545
1 µM, coculture fibroblast: H6076	0.858	0.909	0.787	0.742	0.692	0.676	0.661	0.661	0.647
1 µM, coculture fibroblast: H6231	0.888	0.905	0.784	0.719	0.661	0.612	0.578	0.557	0.53
1 µM, coculture fibroblast: HADF	0.73	0.887	0.882	0.867	0.839	0.807	0.781	0.748	0.708
1 µM, coculture fibroblast: HCFa	0.9456	0.8694	0.844	0.804	0.767	0.737	0.712	0.684	0.647
1 µM, coculture fibroblast: HCPF	0.868	0.938	0.853	0.8012	0.749	0.699	0.648	0.644	0.598
1 µM, coculture fibroblast: HHSteC	0.9298	0.838	0.82	0.738	0.687	0.651	0.617	0.597	0.562
1 µM, coculture fibroblast: HMF	0.861	0.897	0.754	0.693	0.638	0.592	0.558	0.523	0.494
1 µM, coculture fibroblast: HPFa	0.932	0.854	0.869	0.7776	0.744	0.699	0.67	0.637	0.567
1 µM, coculture fibroblast: HUF	0.923	0.8152	0.79635	0.731	0.683	0.647	0.637	0.622	0.612
1 µM, coculture fibroblast: Hs5	0.86	0.905	0.804	0.749	0.7075	0.663	0.621	0.588	0.559
1 µM, coculture fibroblast: Hs27A	0.815	0.828	0.908	0.921	0.874	0.848	0.817	0.786	0.735
1 µM, coculture fibroblast: Hs343T	0.728	0.9261	0.768	0.706	0.658	0.604	0.55	0.533	0.493
1 µM, coculture fibroblast: WS1	0.8805	0.851	0.81	0.7663	0.726	0.725	0.721	0.724	0.726

Values are relative to the signal before dosing, not to a vehicle control; the signal also falls without drug.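 Fibroblast labels denote human fibroblasts, mainly primary ones from uterus (C12385, HUF), lung (H6013), bone (Hs27A), adrenal (HADF) and skin (WS1), plus mammary HMF and breast cancer-associated Hs343T. Cancer cells are basal-like or mesenchymal-like triple-negative breast cancer lines. A hit is a response shift exceeding 3x replicate standard deviation. The tissue of the other fibroblasts is not given here.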
